This is an account of results in article PMC10681723.

Amino acid sequences for entries named in this document (tags omitted). A change or cut given only in a name is not applied to a line headed by its entry. Chains listed by the source or under a name are the forms on record and can include a tag or linker.
UniProt P32558: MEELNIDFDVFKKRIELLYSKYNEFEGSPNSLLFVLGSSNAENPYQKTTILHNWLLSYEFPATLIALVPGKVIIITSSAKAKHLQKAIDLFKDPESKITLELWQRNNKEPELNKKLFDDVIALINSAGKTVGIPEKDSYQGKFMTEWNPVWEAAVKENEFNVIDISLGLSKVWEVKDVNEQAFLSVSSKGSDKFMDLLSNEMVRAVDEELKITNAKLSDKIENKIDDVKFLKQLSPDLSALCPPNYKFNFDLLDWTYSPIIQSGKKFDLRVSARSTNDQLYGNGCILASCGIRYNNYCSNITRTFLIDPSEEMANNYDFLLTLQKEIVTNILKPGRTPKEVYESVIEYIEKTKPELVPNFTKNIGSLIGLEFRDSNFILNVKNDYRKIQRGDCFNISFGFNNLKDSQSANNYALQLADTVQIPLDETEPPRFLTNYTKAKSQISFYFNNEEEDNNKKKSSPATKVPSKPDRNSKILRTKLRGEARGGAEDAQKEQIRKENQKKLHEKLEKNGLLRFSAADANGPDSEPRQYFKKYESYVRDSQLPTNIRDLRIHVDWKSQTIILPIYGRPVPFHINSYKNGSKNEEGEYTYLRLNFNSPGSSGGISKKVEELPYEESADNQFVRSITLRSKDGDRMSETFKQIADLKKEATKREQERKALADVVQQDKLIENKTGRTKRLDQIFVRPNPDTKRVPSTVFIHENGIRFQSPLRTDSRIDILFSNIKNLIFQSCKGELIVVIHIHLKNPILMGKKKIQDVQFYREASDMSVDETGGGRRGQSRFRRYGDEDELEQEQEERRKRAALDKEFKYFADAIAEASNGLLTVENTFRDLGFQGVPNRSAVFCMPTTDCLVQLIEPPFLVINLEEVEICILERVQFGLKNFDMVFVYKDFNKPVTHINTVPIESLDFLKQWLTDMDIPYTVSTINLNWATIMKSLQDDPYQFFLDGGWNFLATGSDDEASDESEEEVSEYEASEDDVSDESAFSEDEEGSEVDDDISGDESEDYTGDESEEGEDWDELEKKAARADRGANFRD
TAP-tagged Spt16-m (SPT16-K692R693AA) (budding yeast (S. cerevisiae)) (P32558, form named): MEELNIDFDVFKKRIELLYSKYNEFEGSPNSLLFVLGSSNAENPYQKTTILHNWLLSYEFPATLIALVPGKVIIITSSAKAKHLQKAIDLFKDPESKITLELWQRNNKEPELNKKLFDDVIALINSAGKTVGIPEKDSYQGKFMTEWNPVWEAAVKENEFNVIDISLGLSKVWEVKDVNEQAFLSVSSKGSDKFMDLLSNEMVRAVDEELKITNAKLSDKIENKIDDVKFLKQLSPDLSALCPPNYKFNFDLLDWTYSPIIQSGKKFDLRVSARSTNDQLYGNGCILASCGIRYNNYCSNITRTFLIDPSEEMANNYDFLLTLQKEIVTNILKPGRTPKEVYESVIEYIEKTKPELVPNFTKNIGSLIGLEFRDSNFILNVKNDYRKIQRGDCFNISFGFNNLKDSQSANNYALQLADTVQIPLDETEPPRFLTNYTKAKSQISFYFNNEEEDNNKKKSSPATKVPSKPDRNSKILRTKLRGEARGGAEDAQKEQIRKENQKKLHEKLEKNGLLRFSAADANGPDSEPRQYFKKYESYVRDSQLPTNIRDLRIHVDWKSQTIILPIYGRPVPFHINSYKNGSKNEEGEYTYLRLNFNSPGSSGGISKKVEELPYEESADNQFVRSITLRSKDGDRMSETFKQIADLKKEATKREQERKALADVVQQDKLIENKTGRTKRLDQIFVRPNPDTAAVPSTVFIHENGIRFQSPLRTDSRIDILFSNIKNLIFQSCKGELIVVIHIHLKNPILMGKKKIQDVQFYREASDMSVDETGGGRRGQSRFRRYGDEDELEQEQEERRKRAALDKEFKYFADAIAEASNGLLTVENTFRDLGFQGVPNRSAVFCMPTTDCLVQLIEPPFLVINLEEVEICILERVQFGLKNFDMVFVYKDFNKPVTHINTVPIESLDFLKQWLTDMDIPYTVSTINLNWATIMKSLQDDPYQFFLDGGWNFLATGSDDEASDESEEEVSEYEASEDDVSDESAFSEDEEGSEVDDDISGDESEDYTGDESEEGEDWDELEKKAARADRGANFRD

In assay [1] the target is TAP-tagged Spt16-m (SPT16-K692R693AA) (budding yeast (S. cerevisiae)) (UniProt P32558). The assay is described as follows: co-IP; tandem affinity purification of TAP-tagged Spt16 from yeast lysate (IgG Sepharose, TEV elution, calmodulin resin; 25 mM Tris pH 8.0, 100 mM NaCl, DNase I); co-purified proteins by immunoblotting.
In assay [2] the target is TAP-tagged Spt16 (Spt16-TAP), wild type (budding yeast (S. cerevisiae)) (UniProt P32558). Described as above.

Results are given in words; binding and its absence hold for the method and conditions named. Binding seen in cells or lysates may run through a third protein. Some binding calls cover weakened binding; strength is not graded here.

B1: Mcm4 (as detected in Figure 3F) (protein, UniProt P30665 1-933)
chain: MSQQSSSPTKEDNNSSSPVVPNPDSVPPQLSSPALFYSSSSSQGDIYGRNNSQNLSQGEGNIRAAIGSSPLNFPSSSQRQNSDVFQSQGRQGRIRSSASASGRSRYHSDLRSDRALPTSSSSLGRNGQNRVHMRRNDIHTSDLSSPRRIVDFDTRSGVNTLDTSSSSAPPSEASEPLRIIWGTNVSIQECTTNFRNFLMSFKYKFRKILDEREEFINNTTDEELYYIKQLNEMRELGTSNLNLDARNLLAYKQTEDLYHQLLNYPQEVISIMDQTIKDCMVSLIVDNNLDYDLDEIETKFYKVRPYNVGSCKGMRELNPNDIDKLINLKGLVLRSTPVIPDMKVAFFKCNVCDHTMAVEIDRGVIQEPARCERIDCNEPNSMSLIHNRCSFADKQVIKLQETPDFVPDGQTPHSISLCVYDELVDSCRAGDRIEVTGTFRSIPIRANSRQRVLKSLYKTYVDVVHVKKVSDKRLDVDTSTIEQELMQNKVDHNEVEEVRQITDQDLAKIREVAAREDLYSLLARSIAPSIYELEDVKKGILLQLFGGTNKTFTKGGRYRGDINILLCGDPSTSKSQILQYVHKITPRGVYTSGKGSSAVGLTAYITRDVDTKQLVLESGALVLSDGGVCCIDEFDKMSDSTRSVLHEVMEQQTISIAKAGIITTLNARSSILASANPIGSRYNPNLPVTENIDLPPPLLSRFDLVYLVLDKVDEKNDRELAKHLTNLYLEDKPEHISQDDVLPVEFLTMYISYAKEHIHPIITEAAKTELVRAYVGMRKMGDDSRSDEKRITATTRQLESMIRLAEAHAKMKLKNVVELEDVQEAVRLIRSAIKDYATDPKTGKIDMNLVQTGKSVIQRKLQEDLSREIMNVLKDQASDSMSFNELIKQINEHSQDRVESSDIQEALSRLQQEDKVIVLGEGVRRSVRLNNRV
In the case of B1, the binding entry in assay [1] and in assay [2] was “binds” in each case.
